From US6887705B1, “Tyrosine phosphorylated cleavage furrow-associated proteins (PSTPIPs)” (Genentech, Inc., priority 1997, dated 2005)
These are yes or no findings as the source states them, for the method shown. Binding seen in cells or lysates may run through a third protein. Some results given as binding are weak or reduced against the parent protein; the word gives no strength. Tags and fused reporters may be left off the sequences shown.

T1: GST-PST-rich+CTH PTP HSCF (GST fusion of PTP HSCF amino acids 304-453) (UniProt Q61152)
T1 sequence (looked up): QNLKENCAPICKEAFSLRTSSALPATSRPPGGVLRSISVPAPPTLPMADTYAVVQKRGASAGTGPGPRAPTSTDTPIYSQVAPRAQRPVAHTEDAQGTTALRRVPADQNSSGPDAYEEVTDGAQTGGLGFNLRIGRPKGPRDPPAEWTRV


Target: T1, GST-PST-rich+CTH PTP HSCF (GST fusion of PTP HSCF amino acids 304-453)
Experiment: GST-PTP HSCF pulldown of in vitro translated PST PIP

Row | Molecule | binding
1 | full-length PSTPIP tagged with the FLAG epitope at the C-terminus (other, In vitro transcribed/translated in rabbit reticulocyte lysate, or expressed in COS cells) MMAQLQFRDAFWCRDFTAHTGYEVLLQRLLDGRKMCKDVEELLRQRAQAEERYGKELVQIARKAGGQTEMNSLRTSFDSLKQQTENVGSAHIQLALALREELRSLEEFRERQKEQRKKYEAIMDRVQKSKLSLYKKTMESKKAYDQKCRDADDAEQAFERVSANGHQKQVEKSQNKAKQCKESATEAERVYRQNIEQLERARTEWEQEHRTTCEAFQLQEFDRLTILRNALWVHCNQLSMQCVKDDELYEEVRLTLEGCDVEGDINGFIQSKSTGREPPAPVPYQNYYDREVTPLIGSPSIQPSCGVIKRFSGLLHGSPKTTPSAPAASTETLTPTPERNELVYASIEVQATQGNLNSSAQDYRALYDYTAQNSDELDISAGDILAVILEGEDGWWTVERNGQRGFVPGSYLEKLDYKDDDDK | binds

Target: full-length PSTPIP tagged with the FLAG epitope at the C-terminus (murine) (UniProt P97814)
Experiment: co-immunoprecipitation from co-transfected COS cells

Row | binding | Molecule
2 | binds | PTP HSCF with R436 mutated to alanine, HA tagged (enzyme, UniProt Q61152 1-453, looked up, not shown: small tags and cut ends) MSRHTDLVRSFLEQLEARDYREGAILAREFSDIKARSVAWKSEGVCSTKAGSRLGNTNKNRYKDVVAYDETRVILSLLQEEGHGDYINANFIRGIDGSQAYIATQGPLPHTLLDFWRLVWEFGVKVILMACQETENGRRKCERYWAREQEPLKAGPFCITLTKETTLNADITLRTLQVTFQKEFRSVHQLQYMSWPDHGVPSSSDHILTMVEEARCLQGLGPGPLCVHCSAGCGRTGVLCAVDYVRQLLLTQTIPPNFSLFQVVLEMRKQRPAAVQTEEQYRFLYHTVAQLFSRTLQDTSPHYQNLKENCAPICKEAFSLRTSSALPATSRPPGGVLRSISVPAPPTLPMADTYAVVQKRGASAGTGPGPRAPTSTDTPIYSQVAPRAQRPVAHTEDAQGTTALRRVPADQNSSGPDAYEEVTDGAQTGGLGFNLAIGRPKGPRDPPAEWTRV
3 | binds | PTP HSCF with W450 mutated to alanine, HA tagged (enzyme, UniProt Q61152 1-453, looked up, not shown: small tags and cut ends) MSRHTDLVRSFLEQLEARDYREGAILAREFSDIKARSVAWKSEGVCSTKAGSRLGNTNKNRYKDVVAYDETRVILSLLQEEGHGDYINANFIRGIDGSQAYIATQGPLPHTLLDFWRLVWEFGVKVILMACQETENGRRKCERYWAREQEPLKAGPFCITLTKETTLNADITLRTLQVTFQKEFRSVHQLQYMSWPDHGVPSSSDHILTMVEEARCLQGLGPGPLCVHCSAGCGRTGVLCAVDYVRQLLLTQTIPPNFSLFQVVLEMRKQRPAAVQTEEQYRFLYHTVAQLFSRTLQDTSPHYQNLKENCAPICKEAFSLRTSSALPATSRPPGGVLRSISVPAPPTLPMADTYAVVQKRGASAGTGPGPRAPTSTDTPIYSQVAPRAQRPVAHTEDAQGTTALRRVPADQNSSGPDAYEEVTDGAQTGGLGFNLRIGRPKGPRDPPAEATRV
4 | binds | PTP HSCF with G442 mutated to alanine, HA tagged (enzyme, UniProt Q61152 1-453, looked up, not shown: small tags and cut ends) MSRHTDLVRSFLEQLEARDYREGAILAREFSDIKARSVAWKSEGVCSTKAGSRLGNTNKNRYKDVVAYDETRVILSLLQEEGHGDYINANFIRGIDGSQAYIATQGPLPHTLLDFWRLVWEFGVKVILMACQETENGRRKCERYWAREQEPLKAGPFCITLTKETTLNADITLRTLQVTFQKEFRSVHQLQYMSWPDHGVPSSSDHILTMVEEARCLQGLGPGPLCVHCSAGCGRTGVLCAVDYVRQLLLTQTIPPNFSLFQVVLEMRKQRPAAVQTEEQYRFLYHTVAQLFSRTLQDTSPHYQNLKENCAPICKEAFSLRTSSALPATSRPPGGVLRSISVPAPPTLPMADTYAVVQKRGASAGTGPGPRAPTSTDTPIYSQVAPRAQRPVAHTEDAQGTTALRRVPADQNSSGPDAYEEVTDGAQTGGLGFNLRIGRPKAPRDPPAEWTRV
5 | binds | PTP HSCF with P447 mutated to alanine, HA tagged (enzyme, UniProt Q61152 1-453, looked up, not shown: small tags and cut ends) MSRHTDLVRSFLEQLEARDYREGAILAREFSDIKARSVAWKSEGVCSTKAGSRLGNTNKNRYKDVVAYDETRVILSLLQEEGHGDYINANFIRGIDGSQAYIATQGPLPHTLLDFWRLVWEFGVKVILMACQETENGRRKCERYWAREQEPLKAGPFCITLTKETTLNADITLRTLQVTFQKEFRSVHQLQYMSWPDHGVPSSSDHILTMVEEARCLQGLGPGPLCVHCSAGCGRTGVLCAVDYVRQLLLTQTIPPNFSLFQVVLEMRKQRPAAVQTEEQYRFLYHTVAQLFSRTLQDTSPHYQNLKENCAPICKEAFSLRTSSALPATSRPPGGVLRSISVPAPPTLPMADTYAVVQKRGASAGTGPGPRAPTSTDTPIYSQVAPRAQRPVAHTEDAQGTTALRRVPADQNSSGPDAYEEVTDGAQTGGLGFNLRIGRPKGPRDPAAEWTRV
6 | binds | PTP HSCF with P440 mutated to alanine, HA tagged (enzyme, UniProt Q61152 1-453, looked up, not shown: small tags and cut ends) MSRHTDLVRSFLEQLEARDYREGAILAREFSDIKARSVAWKSEGVCSTKAGSRLGNTNKNRYKDVVAYDETRVILSLLQEEGHGDYINANFIRGIDGSQAYIATQGPLPHTLLDFWRLVWEFGVKVILMACQETENGRRKCERYWAREQEPLKAGPFCITLTKETTLNADITLRTLQVTFQKEFRSVHQLQYMSWPDHGVPSSSDHILTMVEEARCLQGLGPGPLCVHCSAGCGRTGVLCAVDYVRQLLLTQTIPPNFSLFQVVLEMRKQRPAAVQTEEQYRFLYHTVAQLFSRTLQDTSPHYQNLKENCAPICKEAFSLRTSSALPATSRPPGGVLRSISVPAPPTLPMADTYAVVQKRGASAGTGPGPRAPTSTDTPIYSQVAPRAQRPVAHTEDAQGTTALRRVPADQNSSGPDAYEEVTDGAQTGGLGFNLRIGRAKGPRDPPAEWTRV
7 | binds | PTP HSCF with P443 mutated to alanine, HA tagged (enzyme, UniProt Q61152 1-453, looked up, not shown: small tags and cut ends) MSRHTDLVRSFLEQLEARDYREGAILAREFSDIKARSVAWKSEGVCSTKAGSRLGNTNKNRYKDVVAYDETRVILSLLQEEGHGDYINANFIRGIDGSQAYIATQGPLPHTLLDFWRLVWEFGVKVILMACQETENGRRKCERYWAREQEPLKAGPFCITLTKETTLNADITLRTLQVTFQKEFRSVHQLQYMSWPDHGVPSSSDHILTMVEEARCLQGLGPGPLCVHCSAGCGRTGVLCAVDYVRQLLLTQTIPPNFSLFQVVLEMRKQRPAAVQTEEQYRFLYHTVAQLFSRTLQDTSPHYQNLKENCAPICKEAFSLRTSSALPATSRPPGGVLRSISVPAPPTLPMADTYAVVQKRGASAGTGPGPRAPTSTDTPIYSQVAPRAQRPVAHTEDAQGTTALRRVPADQNSSGPDAYEEVTDGAQTGGLGFNLRIGRPKGARDPPAEWTRV
8 | binds | PTP HSCF with R444 mutated to alanine, HA tagged (enzyme, UniProt Q61152 1-453, looked up, not shown: small tags and cut ends) MSRHTDLVRSFLEQLEARDYREGAILAREFSDIKARSVAWKSEGVCSTKAGSRLGNTNKNRYKDVVAYDETRVILSLLQEEGHGDYINANFIRGIDGSQAYIATQGPLPHTLLDFWRLVWEFGVKVILMACQETENGRRKCERYWAREQEPLKAGPFCITLTKETTLNADITLRTLQVTFQKEFRSVHQLQYMSWPDHGVPSSSDHILTMVEEARCLQGLGPGPLCVHCSAGCGRTGVLCAVDYVRQLLLTQTIPPNFSLFQVVLEMRKQRPAAVQTEEQYRFLYHTVAQLFSRTLQDTSPHYQNLKENCAPICKEAFSLRTSSALPATSRPPGGVLRSISVPAPPTLPMADTYAVVQKRGASAGTGPGPRAPTSTDTPIYSQVAPRAQRPVAHTEDAQGTTALRRVPADQNSSGPDAYEEVTDGAQTGGLGFNLRIGRPKGPADPPAEWTRV

Target: T1, GST-PST-rich+CTH PTP HSCF (GST fusion of PTP HSCF amino acids 304-453)
Experiment: GST-PTP HSCF pulldown of in vitro translated PST PIP deletion mutant

Row | binding | Molecule
9 | binds | PST PIP missing 25 amino acids from the N-terminus (delta 25), C-terminal FLAG (from UniProt P97814 26-415)

Target: T1, GST-PST-rich+CTH PTP HSCF (GST fusion of PTP HSCF amino acids 304-453)
Experiment: PTP HSCF GST fusion pulldown of in vitro translated PST PIP mutant

Row | binding | Molecule
10 | binds | PST PIP cluster mutant D38VE to alanine, C-terminal FLAG (from UniProt P97814 1-415)
11 | binds | PST PIP cluster mutant D145QK to alanine, C-terminal FLAG (from UniProt P97814 1-415)
12 | binds | PST PIP cluster mutant E50ER to alanine, C-terminal FLAG (from UniProt P97814 1-415)
13 | binds | PST PIP cluster mutant E110RQ to alanine, C-terminal FLAG (from UniProt P97814 1-415)
14 | binds | PST PIP cluster mutant E159RV to alanine, C-terminal FLAG (from UniProt P97814 1-415)
15 | binds | PST PIP cluster mutant I122MD to alanine, C-terminal FLAG (from UniProt P97814 1-415)
16 | binds | PST PIP cluster mutant L133YK to alanine, C-terminal FLAG (from UniProt P97814 1-415)
17 | binds | PST PIP cluster mutant N86VG to alanine, C-terminal FLAG (from UniProt P97814 1-415)
18 | binds | PST PIP cluster mutant Q169VE to alanine, C-terminal FLAG (from UniProt P97814 1-415)
19 | binds | PST PIP cluster mutant R62K to alanine, C-terminal FLAG (from UniProt P97814 1-415)
20 | binds | PST PIP cluster mutant R99EE to alanine, C-terminal FLAG (from UniProt P97814 1-415)

Target: T1, GST-PST-rich+CTH PTP HSCF (GST fusion of PTP HSCF amino acids 304-453)
Experiment: GST-PTP HSCF pulldown of in vitro translated PST PIP mutant

Row | binding | Molecule
21 | binds | PST PIP with leucine 224 mutated to alanine, C-terminal FLAG (from UniProt P97814 1-415)
22 | binds | PST PIP with phenylalanine 221 mutated to alanine, C-terminal FLAG (from UniProt P97814 1-415)
23 | binds | PST PIP with tryptophan 205 mutated to alanine, C-terminal FLAG (from UniProt P97814 1-415)
